PubChem BioAssay AID1159578, Peter MacCallum Cancer Centre – 2015
Here is an unselected part of about 18,000 reagents. In the full data, about 1,030 (5.7%) got an active call. 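Inactive calls also include pools with fewer than 3300 nuclei, whose migration was not assessed.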 Raw values vary from plate to plate and are shown uncorrected. Entries without a mark were called inactive. Not all columns of the deposit are shown. No sequences are given here.

Screen: 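Genome-wide hunt for genes controlling movement of lymphatic endothelial cells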 (primary screen)
System: human lymphatic endothelial cells
Reagents: siRNA pool against human genes, 40 nM
Duration: 48 h after transfection
Read-out: 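Cells stained with dye and imaged after a scratch; covered wound area and nuclei counted, duplicates averaged, migration set against mock wells and turned into a robust z-score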
Direction: migration robust z-score: higher = faster migration into the scratch; nuclei per well: higher = more cells in the well
Call rule: 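Pools averaging fewer than 3300 nuclei are never called; remaining pools count as changed when migration robust z lies outside -2 to 2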
Meaning of the calls: active = migration changed; inactive = no migration change, or too few cells

migration robust z-score | nuclei per well, duplicate mean | target | PubChem SID
0.23 | 5408 | TCEA2 | SID255352769
-0.16 | 3776 | GPR42 | SID255350009
-0.6 | 4461 | ACRV1 | SID255348152
0.94 | 4538 | PRR14 | SID255360146
-1.55 | 6325 | RSPO3 | SID255361537
1.56 | 5896 | SETD7 | SID255360835
-0.44 | 4634 | GAGE5 | SID255349809
-0.77 | 6473 | BIN1 | SID255348297
-1.19 | 5468 | KRTAP20-2 | SID255364972
0.04 | 5983 | PLEKHB1 | SID255359624
-1.12 | 5924 | EHHADH | SID255349460
-0.05 | 6168 | THAP6 | SID255363546
0.74 | 5614 | BTNL2 | SID255359054
-0.8 | 5792 | CMIP | SID255360818
0.9 | 6348 | THEM6 | SID255357662
-0.46 | 4062 | KIF3A | SID255355612
-1.92 | 4729 | PPM1E | SID255355809
-1.22 | 5668 | CCNF | SID255348738
1.55 | 4853 | SCYL2 | SID255358773
-1.79 | 5376 | RALGAPB | SID255359300
0.72 | 5530 | NBN | SID255351148
0.8 | 6822 | WRNIP1 | SID255359146
0.55 | 4874 | MID1 | SID255350967
2.68 (active) | 5010 | SMPX | SID255356402
2.18 (active) | 5554 | KREMEN1 | SID255361159
-0.26 | 6316 | ATXN2L | SID255355726
-2.57 (active) | 5468 | NDUFA7 | SID255351163
0.62 | 6341 | PRDX5 | SID255356488
1.38 | 5562 | AAMP | SID255348115
0.18 | 5444 | MMP8 | SID255350995
-1.25 | 5416 | G6PC3 | SID255362017
1.27 | 5924 | FGF3 | SID255349668
-0.32 | 5652 | RMI2 | SID255362340
-1.17 | 5520 | VPS4A | SID255356967
0.88 | 6030 | DUSP28 | SID255364829
-0.45 | 5488 | KRTAP4-7 | SID255361652
0.88 | 4210 | EREG | SID255349546
-0.24 | 6165 | XYLB | SID255354686
-0.82 | 5204 | SWAP70 | SID255355970
-0.36 | 5174 | GPR88 | SID255357976
0.43 | 5170 | DLX6 | SID255349320
0.29 | 6292 | ITGA9 | SID255350542
0.46 | 8316 | HORMAD2 | SID255363447
0.46 | 4815 | ZBTB35 | SID255353232
0.68 | 4887 | SMARCA5 | SID255353574
-0.6 | 4852 | MAP4K2 | SID255352007
-2.13 (active) | 4022 | SHOC2 | SID255353373
-0.6 | 3636 | MRPL36 | SID255360067
-0.78 | 5538 | RNF34 | SID255360695
0.18 | 4801 | HSPA6 | SID255350336
0.47 | 6210 | SLCO1B3 | SID255357064
0.06 | 5788 | A3GALT2 | SID255362761
1.54 | 6235 | JMJD1C | SID255364265
0.48 | 4844 | LRRC20 | SID255358514
0.88 | 5858 | MAGEA4 | SID255350848
-0.99 | 5174 | GAS2 | SID255349832
0.58 | 6346 | CCL22 | SID255352336

Targets listed so far whose gene name begins with N or n (2):
migration robust z-score | nuclei per well, duplicate mean | target | PubChem SID
0.72 | 5530 | NBN | SID255351148
-2.57 (active) | 5468 | NDUFA7 | SID255351163
